We go through 64 compounds from PubChem BioAssay AID2685 (National Center for Advancing Translational Sciences (NCATS), 2010).

Each structure is given as a SMILES string. Where “and” joins values, the source holds several entries; their conditions need not be identical. Equal values may be shown once. The list shows a part of the results. The main result of the screen is listed elsewhere. These columns were measured beside it and carry no call. Most of these compounds were active or inconclusive in the main read-out, so they are no random draw. Words in brackets tell the shape of the fitted curve; partial curves, single points and poor fits give uncertain potencies.

This assay is described as follows: qHTS Assay for Lipid Storage Modulators in Drosophila S3 Cells.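 On cell number change: cells counted by Cell Tracker Red CMTPX staining in the red channel.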 Particulars: BODIPY lipid droplet fluorescence, 18-24 h; for cell number change: measured here: cell count max response, cells fed with added oleic acid. A digest of the protocol:
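Drosophila S3 cells got compounds at several concentrations plus oleic acid (400 uM solution). Laser-scanning cytometry with 488 nm excitation read lipid droplets at 500-530 nm and cells at 575-640 nm. Percent activity was relative to 20 uM Triacsin C.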
A general note: Quantitative high-throughput screening tests each substance at several concentrations.

[1] abbreviates: measured here: cell number channel AC50, cells fed with added oleic acid.
Setting [2] is: measured here: lipid fluorescence (Fed channel) AC50, cells fed with added oleic acid.

With `CC12CN3CC(C)(CN(C1)C3c1ccc(Cl)cc1Cl)C2O` (stereo not drawn), the cell number change is -16.4%.
The term AC50 denotes the midpoint of the concentration-response curve, whichever way the signal moves. Read a low AC50 as greater potency. On to `COc1ccc(-c2cc3nc(C)cc(NCCO)n3n2)cc1`, for which the cell number change was -2.56%. In addition, the AC50 under setting [1] is 0.103 µM [falling, full curve, poor fit].
As for `O=C(CSc1nnnn1Cc1ccccc1)Nc1ccccc1`, the cell number change was -15.6%. Further, the AC50 under setting [2] was 8.2 µM [rising, partial curve, poor fit].
On to `COc1cc(NC(=O)Cn2nc(C(F)(F)F)c3c2CCCC3)cc(OC)c1OC`, for which the cell number change came to 9.37%. The AC50 under setting [2] is 2.31 µM [rising, partial curve].
Turning to `CNC(=S)NC1CC2CCCC(C1)N2Cc1ccccc1OC` (stereo not drawn), the cell number change amounted to 2.36%. For the same compound, the AC50 under setting [2] is 29.1 µM [falling, single point].
On to `O=C(NCC(O)CO)c1csc(Nc2cccc3ccccc23)n1` (stereo not drawn), for which the cell number change is 16.7%.
Regarding `CCOC(=O)/C=C1\CN(Cc2cc(OC)c(OC)c(OC)c2)S(=O)(=O)c2ccccc21`, the cell number change is -12.3%. Moreover, under setting [2], the half-maximal activity concentration (AC50) is 13 µM [rising, single point].
For the compound `CC(C)(CNC(=O)c1ccc(S(=O)(=O)N2CCCC2)cc1)N1CCOCC1`, the AC50 is, setting by setting: under setting [1], 0.0517 µM [rising, full curve, poor fit]; under setting [2], 0.058 µM [rising, partial curve, poor fit].
Take `Cc1cc2c(c(=O)n1Cc1cccnc1)C(c1ccc(F)cc1)C(C#N)=C(N)O2` (stereo not drawn): the cell number change is 89.2%. Moreover, the AC50 under setting [1] was 7.31 µM [rising, partial curve]. Also, the AC50 under setting [2] was 0.259 µM [rising, partial curve].
Turning to `Cc1onc(-c2c(F)cccc2Cl)c1C(=O)NNC(=O)C1CCN(Cc2ccccc2)CC1`, the cell number change amounted to 8.61%.
For the compound `Cc1ccc(C(=O)OCC(=O)c2ccc(Cl)s2)s1`, the cell number change is -13.5%. For the same compound, under setting [2], the AC50 is 0.0291 µM [falling, full curve, poor fit].
In the case of `Cc1ccc(Sc2ccc(CO)cc2[N+](=O)[O-])cc1`, the cell number change is -18%. In addition, the AC50 under setting [2] is 0.146 µM [rising, full curve, poor fit].
For `Cc1nc(C)n(CC(=O)c2ccc(Cl)cc2Cl)n1`, the cell number change worked out at 1.05%.
`Cc1ccccc1Nc1cc(C(=O)NCC2CCCO2)c2ccccc2n1` (stereo not drawn): the cell number change amounted to 17.1%. Further, under setting [2], the concentration at half-maximal activity (AC50) is 10.3 µM [rising, partial curve].
For `Cc1nonc1CN(C)C(=O)CC1C(=O)NCCN1Cc1ccccc1F` (stereo not drawn), the cell number change is -1.42%. Besides, under setting [2], the AC50 was 29.1 µM [rising, single point].
Consider `Cn1c(Br)nc2c1c(=O)n(CC(O)COc1ccccc1)c(=O)n2C` (stereo not drawn), for which the cell number change was -10.2%. Besides, the AC50 under setting [2] was 0.092 µM [rising, full curve, poor fit].
Turning to `COC(C(=O)Nc1ccc(S(=O)(=O)Nc2cccc3ccccc23)cc1)c1ccccc1` (stereo not drawn), the cell number change was 1.51%. In addition, the AC50 under setting [2] was 0.0291 µM [rising, full curve, poor fit].
Take `CCOC(=O)CS(=O)(=O)CC(=O)Nc1ccc([N+](=O)[O-])cc1OC`: the cell number change came to 35.5%. Also, the AC50 under setting [1] was 29.1 µM [rising, single point].
As to `O=S(=O)(c1ccc(Cl)cc1)N1CCN(c2nc(-c3cccs3)nc3ccccc23)CC1`, the cell number change stood at 30.6%. Moreover, the AC50 under setting [1] was 11.6 µM [rising, partial curve]. Besides, the AC50 under setting [2] is 10.3 µM [rising, partial curve].
Consider `Cc1ccc(-c2cc(C(=O)NN3CCOCC3)c3cc(Br)ccc3n2)o1`, for which the cell number change amounted to 86.8%. For the same compound, under setting [1], the AC50 is 23.1 µM [rising, single point].
Turning to `Cc1ccc2nc(N(CCCN(C)C)C(=O)c3ccc(S(=O)(=O)N4CCOCC4)cc3)sc2c1`, the cell number change was found to be 10.7%. For the same compound, the AC50 under setting [2] was 0.355 µM [rising, full curve, poor fit].
Take `COc1cccc(CC(=O)NCC2COc3ccccc3O2)c1OC` (stereo not drawn): the cell number change amounted to 15%. Also, under setting [2], the AC50 was 1.84 µM [rising, partial curve, poor fit].
In the case of `CO/N=C\CC(=O)Nc1ccc(Cl)cc1Cl`, the cell number change is -11.7%. In addition, the concentration at half-maximal activity (AC50) under setting [2] is 23.1 µM [falling, single point].
Consider `CS(=O)(=O)NCCNc1ccc(C(F)(F)F)cc1[N+](=O)[O-]`, for which the cell number change worked out at 10.4%.
As to `COc1ccc(C2OCC3(CO2)SC(=O)NC3=O)cc1` (stereo not drawn), the cell number change is -17.5%. Also, the AC50 under setting [1] was 2.06 µM [rising, partial curve].
Regarding `COc1cc(CN(CC2CCCO2)C(=O)c2cccs2)cc(OC)c1OC` (stereo not drawn), the AC50 under setting [2] was 29.1 µM [rising, single point].
For the compound `O=C(NNc1ccccc1Br)C(O)(c1cccc(C(F)(F)F)c1)c1cccc(C(F)(F)F)c1`, the cell number change is -74.1%. Further, the AC50 under setting [1] was 29.1 µM [falling, single point]. Also, the AC50 under setting [2] is 4.61 µM [falling, partial curve, poor fit].
Regarding `CCN(CC)CCCn1c(=S)[nH]c2ccc(Cl)cc2c1=O`, under setting [1], the AC50 was 6.51 µM [falling, single point].
For `COc1ccc(N2CCN(CCC(N)=O)CC2)cc1`, the cell number change is -18.4%.
As to `CSc1ccc(/C=N/n2c(Cc3ccc(Br)cc3)n[nH]c2=S)cc1`, the AC50 under setting [1] is 0.651 µM [falling, single point].
`O=C(O)CN1C(=O)SC(Nc2ccc(C(=O)O)cc2)C1=O` (stereo not drawn): the cell number change was determined as 4.49%.
`CCOC(=O)CNC(=O)CSc1nnc(-c2cccc(OC)c2)n1CC`: the cell number change was -1.7%. Moreover, the AC50 under setting [2] was 6.51 µM [falling, single point].
Take `CCOc1ccc(C(C(=O)NC2CCCC2)N(CCOC)C(=O)CNC(=O)c2ccco2)cc1` (stereo not drawn): the cell number change was 22.2%. The AC50 under setting [2] is 6.51 µM [rising, single point].
Regarding `CC1Cc2ccccc2N1C(=O)CSc1nnc(Cc2ccccc2)n1CCc1ccccc1` (stereo not drawn), the cell number change was -18%. The AC50 under setting [1] is 1.46 µM [rising, partial curve]. In addition, the AC50 under setting [2] is 2.06 µM [rising, partial curve].
`Cc1ccc(NS(=O)(=O)c2ccc(F)cc2)nc1`: the cell number change was -8.01%.
The same measure, in the same setting: with `CCCC(=O)Nc1cc(C)c(NC(=O)Cc2ccccc2)cn1` the figure was -6.54%.
On to `Cc1nn(CC(=O)c2cccc(Cl)c2)c(C)c1[N+](=O)[O-]`, for which the cell number change was -14.7%. Moreover, under setting [1], the AC50 is 6.51 µM [rising, single point]. In addition, the AC50 under setting [2] was 3.66 µM [rising, single point].
As for `Cc1cccc(CCN(CC(=O)NCc2ccc(F)cc2)C(=O)c2csnn2)c1`, the cell number change is -1.28%.
Consider `CCOc1ccc(OCCNC(=O)c2cc(C3CC3)nc3c2cnn3C(C)C)cc1`, for which the cell number change came out at 34.9%. Also, the AC50 under setting [1] was 20.6 µM [rising, single point].
As for `O=C(CCCOc1ccccc1)Nc1nccs1`, the cell number change is -1.36%. Under setting [2], the AC50 was 16.4 µM [rising, partial curve].
Turning to `CCOC(=O)c1sc(NC(=O)c2ccccc2OC)nc1C`, the cell number change was 3.68%.
For `COc1ccc(OC)c(C(=O)NC(CC(N)=O)c2ccc(NCCN3CCOCC3)c([N+](=O)[O-])c2)c1` (stereo not drawn), the cell number change was 15.8%. Besides, the AC50 under setting [2] is 23.1 µM [rising, single point].
Consider `O=C(O)CN(Cc1ccccc1)S(=O)(=O)c1ccc(F)cc1`, for which the cell number change was -11.9%. Under setting [2], the AC50 was 0.00651 µM [falling, full curve, poor fit].
Regarding `CN(NS(C)(=O)=O)c1ncc(C(F)(F)F)cc1Cl`, the cell number change was found to be 2.85%.
With `CCC(=O)NC(C)c1cc(Cl)c2cccnc2c1O` (stereo not drawn), the cell number change was -25.6% and 13.7%. The AC50 under setting [2] is 92 nM [falling, single point] and 13 µM [falling, partial curve].
`Cc1cc(C)n(-c2ccc(C(=O)OCn3nnc4ccccc4c3=O)cc2)n1`: the cell number change worked out at 19.9%. For the same compound, the AC50 under setting [2] is 3.66 µM [rising, partial curve].
Consider `COC(=O)C(NC(=O)c1ccc(OC)cc1)(Nc1ncc(S(=O)(=O)c2ccc([N+](=O)[O-])cc2)s1)C(F)(F)F` (stereo not drawn), for which the cell number change was -0.132%.
Still for that read-out and setting: with `CCc1cc2c(N3CCN(c4nnc(CC)s4)CC3)ncnc2s1` the figure was -20.3%; with `CC(Sc1nnc(N)s1)C(=O)Nc1ccc2c(c1)OCCO2` (stereo not drawn), -9.83%.
`FC(F)(F)c1cccc(NC(=S)NCCc2ccccn2)c1`: the cell number change turned out to be 25.1%. The AC50 under setting [2] is 29.1 µM [rising, single point].
`COc1cccc(-c2nn(C)c3sc(C(=O)NCc4ccc(C)cc4)cc23)c1`: the cell number change was -6.44%. Also, the AC50 under setting [2] was 0.0259 µM [rising, full curve, poor fit].
Take `O=C1CC2(CCN(C(=O)c3cccc(Br)c3)CC2)Oc2ccccc21`: the cell number change is -10.3%. Under setting [2], the AC50 is 6.51 µM [rising, single point].
For `COc1ccc(OCCCC(=O)Nc2ccc(S(=O)(=O)N3CCOCC3)cc2)cc1`, the cell number change came out at 24.7%. Further, the AC50 under setting [2] was 0.103 µM [rising, full curve, poor fit].
`CC(C)NC(=O)c1ccc(CS(=O)(=O)c2ccc(Br)cc2)o1`: the cell number change was -11.4%. Besides, the AC50 under setting [2] is 0.146 µM [rising, full curve, poor fit].
For the compound `O=C(Nc1ccc(F)cc1)C1CC(=O)n2ncnc2N1` (stereo not drawn), the cell number change was -44.1%. Further, under setting [1], the AC50 was 5.8 µM [falling, full curve]. The AC50 under setting [2] is 5.8 µM [falling, full curve].
Turning to `CCOc1ccc(NS(=O)(=O)c2ccc3[nH]cc(C(=O)NC(C)CC)c(=O)c3c2)cc1` (stereo not drawn), the cell number change is -15.6%.
Take `CN1CCN(c2ccccc2NC(=O)c2ccc(N3CCCCC3)c([N+](=O)[O-])c2)CC1`: the cell number change worked out at 4.62%.
As to `O=S(=O)(c1ccc2nc(Cc3cccc(C(F)(F)F)c3)[nH]c2c1)N1CCOCC1`, the cell number change is -11.9%. Moreover, the concentration at half-maximal activity (AC50) under setting [2] was 13 µM [falling, single point].
As to `COc1ccc(S(=O)(=O)N2CCCCCC2)cc1C(=O)Nc1cccc(C)n1`, the cell number change was -5.09%. The AC50 under setting [2] was 35.5 µM [falling, single point].
In the case of `O=C(CCS(=O)(=O)c1ccccc1)N1CCN(c2ccc(F)cc2)CC1`, the cell number change was determined as 2.6%. Also, the AC50 under setting [2] is 0.651 µM [rising, partial curve, poor fit].
Regarding `CCN(CC(=O)Nc1ccc(OC)c(OC)c1)CC(=O)Nc1ccccc1C(F)(F)F`, the cell number change is 0.709%.
Regarding `COc1cc(N2CCCC2)c(OC)cc1/C=C1/NC(=S)NC1=O`, the cell number change was -99%. Under setting [1], the AC50 is 29.1 µM [falling, single point]. For the same compound, the AC50 under setting [2] was 25.9 µM [falling, partial curve, poor fit].
Take `CC(C)OCCCNC(=O)CCC(=O)NNc1nc2ccccc2c2nc(-c3ccccc3)nn12`: the AC50 under setting [2] is 0.00461 µM [falling, full curve, poor fit].
Regarding `CC1CCCCC1NC(=O)C1CCN(S(=O)(=O)c2cccc3nonc23)CC1` (stereo not drawn), the cell number change stood at 29.7%. Also, under setting [2], the AC50 is 9.2 µM [rising, partial curve].
